Experimental findings from paper doi:10.1101/2022.06.21.497065 are described below.

The chains behind the UniProt entries cited, without tags or fusion partners.
UniProt P63158: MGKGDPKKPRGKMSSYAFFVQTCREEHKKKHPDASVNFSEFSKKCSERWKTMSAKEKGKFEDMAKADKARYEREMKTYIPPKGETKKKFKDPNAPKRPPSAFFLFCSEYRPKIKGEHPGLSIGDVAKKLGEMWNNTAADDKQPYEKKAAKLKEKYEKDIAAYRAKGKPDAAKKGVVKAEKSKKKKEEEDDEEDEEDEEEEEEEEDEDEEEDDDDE
UniProt P04406: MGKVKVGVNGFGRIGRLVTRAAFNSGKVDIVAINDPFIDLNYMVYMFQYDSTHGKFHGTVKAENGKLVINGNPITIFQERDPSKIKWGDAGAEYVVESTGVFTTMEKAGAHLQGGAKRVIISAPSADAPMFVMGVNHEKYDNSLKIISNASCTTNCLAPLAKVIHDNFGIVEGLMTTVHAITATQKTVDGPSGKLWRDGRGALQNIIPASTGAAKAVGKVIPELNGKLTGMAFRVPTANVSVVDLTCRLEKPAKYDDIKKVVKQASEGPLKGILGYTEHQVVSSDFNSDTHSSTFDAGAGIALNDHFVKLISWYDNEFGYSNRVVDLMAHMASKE

No constants are given. Whether binding was seen depends on the method and setting. For some assays here: In cells and extracts the contact can be indirect. Some binding calls cover weakened binding; strength is not graded here.

Test [1] addresses T1, Siah1 recombinant protein (UniProt Q8IUQ4).
T1 sequence: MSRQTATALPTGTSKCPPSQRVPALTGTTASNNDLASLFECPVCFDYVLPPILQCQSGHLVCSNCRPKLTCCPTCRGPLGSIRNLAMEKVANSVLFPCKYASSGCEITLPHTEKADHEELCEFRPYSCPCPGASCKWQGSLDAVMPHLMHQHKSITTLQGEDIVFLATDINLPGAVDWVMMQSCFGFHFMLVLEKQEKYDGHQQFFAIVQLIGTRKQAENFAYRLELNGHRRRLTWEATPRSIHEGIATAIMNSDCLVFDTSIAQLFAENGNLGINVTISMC
Kind of test: co-IP.

The next test concerns the target HMGB1 (UniProt P63158). The experiment in a line: co-IP.

For “GAPDH recombinant protein (from UniProt P04406 1-335)”, the binding result in test [1] is “binds”.

B1: HMGB2 (protein, UniProt P30681 1-210)
chain: MGKGDPNKPRGKMSSYAFFVQTCREEHKKKHPDSSVNFAEFSKKCSERWKTMSAKEKSKFEDLAKSDKARYDREMKNYVPPKGDKKGKKKDPNAPKRPPSAFFLFCSENRPKIKIEHPGLSIGDTAKKLGEMWSEQSAKDKQPYEQKAAKLKEKYEKDIAAYRAKGKSEAGKKGPGRPTGSKKKNEPEDEEEEEEEEEEEDDEEEEEDEE
With B1, the binding entry in the test with HMGB1 was “binds”.
